Test results: US20190025321A1 (WHITEHEAD INSTITUTE FOR BIOMEDICAL RESEARCH, published 2019)

What was measured:
[1] = target: T1, recombinant CASTOR1 (Cellular Arginine Sensor for mTORC1; protein encoded by the GATS protein-like 3 gene) (human, UniProt Q8WTX7 1-329); test: co-immunoprecipitation, anti-HA IP from co-transfected HEK-293T cells starved of all amino acids 50 min
T1 construct: Expressed from pRK5 vectors in HEK-293T cells; which tag was used depends on the experiment; also called GATSL3; CASTOR1-HA
T1 sequence (looked up): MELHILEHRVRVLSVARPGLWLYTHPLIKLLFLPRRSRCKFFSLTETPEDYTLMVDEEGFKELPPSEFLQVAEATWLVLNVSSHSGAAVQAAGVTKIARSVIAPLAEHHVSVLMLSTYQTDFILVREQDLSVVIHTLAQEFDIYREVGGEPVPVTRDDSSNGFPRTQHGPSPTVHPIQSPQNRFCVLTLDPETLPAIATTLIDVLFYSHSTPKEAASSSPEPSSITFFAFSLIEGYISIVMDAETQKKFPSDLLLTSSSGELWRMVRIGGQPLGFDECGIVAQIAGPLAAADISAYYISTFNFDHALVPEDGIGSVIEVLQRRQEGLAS
Description: (§1) FIG. 8A depicts validation of the anti-serum used to detect endogenous CASTOR2. Lysates were prepared from HEK-293T lines stably expressing the indicated shRNAs and analyzed by immunoblotting for levels of indicated proteins. FIG. 8B depicts validation of the anti-serum used to detect endogenous CASTOR1. Lysates were prepared from HEK-293T stably lines expressing the indicated shRNAs and analyzed as in (8C). The arrow denotes the band corresponding to endogenous CASTOR1. […] HEK-293T cells were cotransfected with the indicated cDNAs in expression vectors, starved of all amino acids for 50 minutes, and anti-HA immunoprecipitates were analyzed as in FIG. 1D. […] HEK-293T cells were cotransfected with the indicated cDNAs in expression vectors, starved of all amino acids for 50 minutes, and anti-HA immunoprecipitates were analyzed as in FIG. 1D.

[2] = target: T2, recombinant CASTOR2 (protein encoded by the GATSL2 gene) (human, UniProt A6NHX0 1-329); test: as above
T2 construct: Expressed from pRK5 vectors in HEK-293T cells; the tag and its position depend on the experiment; also called CASTOR2-HA; CASTOR2-FLAG; not shown: printed both as CASTOR2-HA / CASTOR2-FLAG and as HA-CASTOR2 / myc-CASTOR2, so the end that
T2 sequence (looked up): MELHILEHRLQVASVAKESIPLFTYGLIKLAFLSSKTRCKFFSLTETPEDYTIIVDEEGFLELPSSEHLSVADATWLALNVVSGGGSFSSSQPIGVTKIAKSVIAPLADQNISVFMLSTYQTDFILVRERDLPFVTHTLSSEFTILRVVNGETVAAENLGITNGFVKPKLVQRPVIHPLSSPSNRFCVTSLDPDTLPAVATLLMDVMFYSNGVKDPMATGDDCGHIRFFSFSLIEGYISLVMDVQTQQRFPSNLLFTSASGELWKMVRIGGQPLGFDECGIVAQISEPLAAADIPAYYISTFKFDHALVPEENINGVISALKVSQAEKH
Description: as §1

[3] = target: T3, endogenous GATOR2 complex (Seh1L, WDR59, WDR24, Sec13 and Mios) (human, UniProt Q9NXC5 1-875; Q96S15 1-790; Q6PJI9 1-974; P55735 2-322; Q96EE3 1-360, limits assumed); test: co-immunoprecipitation, anti-HA IP from transfected HEK-293T cells starved of all amino acids 50 min, immunoblot for endogenous mios
T3 construct: Five-subunit complex; In most blots its presence is read from the mios band; also called detected by mios
Description: as §1

Measured: binding result

B1: recombinant FAM164A (other, UniProt Q96GY0 1-325, looked up)
chain: MEGLEENGGVVQVGELLPCKICGRTFFPVALKKHGPICQKTATKKRKTFDSSRQRAEGTDIPTVKPLKPRPEPPKKPSNWRRKHEEFIATIRAAKGLDQALKEGGKLPPPPPPSYDPDYIQCPYCQRRFNENAADRHINFCKEQAARISNKGKFSTDTKGKPTSRTQVYKPPALKKSNSPGTASSGSSRLPQPSGAGKTVVGVPSGKVSSSSSSLGNKLQTLSPSHKGIAAPHAGANVKPRNSTPPSLARNPAPGVLTNKRKTYTESYIARPDGDCASSLNGGNIKGIEGHSPGNLPKFCHECGTKYPVEWAKFCCECGIRRMIL
notes: Collected by anti-HA immunoprecipitation, so probably HA-tagged; the construct is not described
no binding: all assays above
